# Data published in the supplement of paper PMC3334620.
# Whole data set: some 33,000 sequences, median “E-score (-0.5 to 0.5)” near -0.0034, cut for the highest 2% near 0.25. This is one part of the list.
# Target: T1, Yap3 (UniProt P38749)
# T1 sequence: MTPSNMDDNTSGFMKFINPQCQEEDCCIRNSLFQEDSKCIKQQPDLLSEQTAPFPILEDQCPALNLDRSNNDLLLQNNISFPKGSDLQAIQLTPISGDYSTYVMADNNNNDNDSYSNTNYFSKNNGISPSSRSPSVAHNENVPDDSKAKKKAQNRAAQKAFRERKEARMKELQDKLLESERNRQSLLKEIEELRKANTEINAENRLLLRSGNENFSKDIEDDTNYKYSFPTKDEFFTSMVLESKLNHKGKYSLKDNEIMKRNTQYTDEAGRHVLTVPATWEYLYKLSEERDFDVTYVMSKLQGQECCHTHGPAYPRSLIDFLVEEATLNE
# Assay: PBM E-score (8-mer binding enrichment) (E-score (-0.5 to 0.5)); higher = stronger / more preferred TF binding
# Conditions: protein concentration: 100 nM; construct: GST-full length
# Outline: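 Full-length yeast transcription factors or their DNA-binding domains, GST-tagged and expressed with PURExpress, were applied at about 100-200 nM to universal all-10-mer Agilent arrays. These arrays had been made double-stranded by primer extension on fresh or once-stripped slides. Detection used fluorescent anti-GST, normalisation used masliner, and E-scores for ungapped eight-base words pooled with reverse complements came from the Universal PBM Analysis Suite.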
row,Sequence,PBM E-score
1,GAATACCC,0.00523
2,ATGACCTA,-0.00491
3,CGCGCCCC,-0.181
4,CCGTCATC,-0.204
5,ATGATTCA,0.0934
6,GAGCTGCA,-0.145
7,AAGTTCGT,-0.00106
8,AGATTAGA,-0.0346
9,AGGCTGGA,-0.252
10,CATCCGCC,-0.0593
11,ACACGATC,-0.0222
12,ACTAATCT,0.00634
13,AACAGGAG,-0.0488
14,CGCGTGAC,0.012
15,GTGGTACA,-0.117
16,TACGAGAA,0.115
17,CCGCATCG,-0.325
18,TCGCGAAA,0.114
19,GCTTTTAA,-0.0608
20,TGAAATAA,0.21
21,CTAAAATC,-0.00289
22,GCCGACTA,0.0231

row,Sequence,PBM E-score
1,CTGGTCTA,-0.0194
2,AGTAGAAT,0.207
3,ACCGCTTG,0.0284
4,CAACGGGA,0.0834
5,ACGTTCTA,-0.0668
6,AAGGCAAA,0.159
7,AGATTTCC,0.182
8,CGACATCC,-0.178
9,CCATGACG,0.0295
10,GCCGGAGA,-0.0884
11,CTGCGCTA,-0.108
12,GCCTCCAA,-0.0329
13,AGACGAGC,-0.172
14,CATCTGAG,-0.0685
15,AGGGGTGC,-0.199
16,AGGCACAC,-0.162
17,ACGCAGCA,-0.0281
18,GATAAGCA,0.138
19,CCTCGAGG,0.102
20,CTTCCGGC,-0.0541
21,AGAAGATA,0.234
22,CGTTTATA,0.28

# Individual results from the entries so far.
# Under PBM E-score, CGTTTATA is entered as 0.28
# Under PBM E-score, ACACGATC is entered as -0.0222

# Additional records.

row,Sequence,PBM E-score
1,CCATTAAA,0.0581
2,CTCCGCAA,-0.247
3,CACTGGCC,-0.159
4,AGCTTCGG,-0.0969
5,ATGATTGC,0.199
6,TGATGGCA,0.0241
7,CACTATCG,0.052
8,CGATACTA,0.212
9,CCAGGTTA,0.00966
10,GTTCAAAA,-0.0132
11,GAATCGGC,0.0864
12,CACCCATA,-0.132
13,GATGGACA,-0.0115
14,CAAAGACC,-0.0486
15,ACTCTCGG,-0.0113
16,TCCGAAAA,-0.172
17,CTATGATC,-0.0167
18,ACCCTGAG,-0.00061
19,GACGCACA,0.00333
20,ATAACTAG,0.146
21,ACCGGCTC,-0.147
22,ACACCTCA,-0.011

row,Sequence,PBM E-score
1,ACGTGACC,-0.173
2,GTGAGAGA,-0.048
3,GATGTGAA,0.161
4,AACGCGTT,-0.025
5,GTTCCCCA,-0.0966
6,TAGGAACA,0.121
7,GATATACC,0.151
8,AAACTTCC,-0.0651
9,CATAACGC,-0.014
10,CATAGCGC,0.134
11,GAACTTCC,0.012
12,TGGTATAA,0.268
13,AGATATCA,0.0902
14,CCACACGA,-0.102
15,CGTTTGAG,-0.0507
16,AAACGAAA,0.234
17,AAGCTCAG,-0.13
18,TAAGCTCA,-0.0888
19,CGCGGTGA,0.016
20,GAAGCAAC,0.0624
